Measured values as given in publication PMC12430429, “Synthesis, Structure, DNA/BSA Binding, DNA Cleaving, Cytotoxic and SOD Mimetic Activities of Copper(II) Complexes Derived from Methoxybenzylamine Schiff Base Ligands” (Molecules, 2025).

System: S. cerevisiae cells
Assay: Resazurin cytotoxicity assay (mitochondrial activity)
Format: cell-based
Details: average of 3 measurements
Text: The resazurin-based model that monitors mitochondrial activity is widely used as an indicator of cell viability, proliferation and cytotoxicity. This method is based on the reduction of resazurin to resorufin by mitochondrial enzymes, as carriers of diaphorase activities, like NADPH-dehydrogenase, which are responsible for the transference of electrons from NADPH^+, H^+ to resazurin. The reduction of resazurin correlates with the number of live bacterial or mammalian cells or fungi. Furthermore, S. cerevisiae is an established model system for eukaryotic organisms. They have conserved cellular processes with high homology to those of humans. They proliferate rapidly and are even used as a model to study the effects of anticancer agents. The use of S. cerevisiae in resazurin redox testing is a good alternative to conventional cell viability testing techniques.
The assay is based on the ability of living cells to reduce blue resazurin (7-hydroxy-3H-phenoxazin-3-one 10-oxide) to pink resorufin (7-hydroxy-3H-phenoxazin-3-one) which is measurable by the UV–Vis spectrophotometric or fluorometric method (AlamarBlue^TM). Living cells have active N-methylphenazinium methosulfate that catalyzes the redox reaction in mitochondria of NADH and blue resazurin to produce pink resorufin (Scheme 2). This test is used as an oxidation–reduction indicator in cell viability assays for yeasts and mammalian cells. Reduction of the dye by viable cells decreases the amount of the oxidized form (blue) and, at the same time, increases the amount of its fluorescent intermediate (pink), indicating the degree of cytotoxicity caused by the test material.
S. cerevisiae cells (CCY 21-4-64; Libáň, Czech Republic) were cultured at 28 °C/24h on Saburaud’s dextrose agar with chloramphenicol (Merck, Boston, MA, USA). Subsequently, after 24 h, S. cerevisiae cells were inoculated into sterile liquid YPD medium (Sigma–Aldrich, St. Louis, MO, USA) and cultivation continued at 28 °C/24 h. In the exponential growth phase, cells were centrifuged (8.000 g/3 min), washed twice with sterile physiological solution (0.9% NaCl) and pipetted at a concentration of 1 × 10^9 cells/mL in sterile microtubes (modified procedure from Bitacura, 2018). Sterile physiological solution and copper complexes at concentrations of 1 × 10^−3 M, 3 × 10^−3 M and 5 × 10^−3 M were added to the centrifuged biomass to a total volume of 1 mL and individual samples were cultured in an incubator at 28 °C/3 h. After 3 h, 0.1 mL of ResazurinOX (in vitro toxicology assay kit based on resazurin, Sigma, USA) was added to each sample and the samples were allowed to culture for 2 h. After incubation, the biomass in the samples was separated from the supernatant by centrifugation (8000 g/5 min). The separated solution was diluted in a ratio of 1:1 with physiological solution and subjected to the measurement of UV spectra by the spectrophotometric method according to the recommended protocol of the kit manufacturer (Sigma, USA) on a GENESYS 10S UV–Vis spectrophotometer (Thermo Scientific, USA) in the range of 500–800 nm, using a 1 cm long cuvette.
Cells’ innate metabolic was measured by using an established formula for the reduction percentage. The reduction percentage was calculated using the following formula:(7) Red(%)=ƐOX_600 nm×A570 nm_sample−ƐOX_570 nm×A600 nm_sample/ƐRED_570 nm×A600 nm_C−−ƐRED_600 nm×A570 nm_C−×100

Compound	Absorbance 570 nm (complex 1 mM)	Absorbance 600 nm (complex 1 mM)	Absorbance 570 nm (complex 3 mM)	Absorbance 600 nm (complex 3 mM)	Absorbance 570 nm (complex 5 mM)	Absorbance 600 nm (complex 5 mM)
COc1ccc(CN=Cc2ccccc2[O-])cc1.COc1ccc(CN=Cc2ccccc2[O-])cc1.[Cl-].[Cl-].[Cu+2].[Cu+2] [Complex 4c, [Cu2 (Sal-4-MeOBn)2 Cl2]]	0.60	0.77	0.40	0.44	0.33	0.27
COc1cccc(CN=Cc2ccccc2[O][Cu][O]c2ccccc2C=NCc2cccc(OC)c2)c1 [Complex 4b, [Cu (Sal-3-MeOBn)2]]	0.75	0.69	0.69	0.88	0.63	0.90
COc1ccccc1CN=Cc1ccccc1[O-].COc1ccccc1CN=Cc1ccccc1[O-].[Cl-].[Cl-].[Cu+2].[Cu+2] [Complex 4a, [Cu2 (Sal-2-MeOBn)2 Cl2]]	0.55	0.25	0.44	0.5	0.32	0.26
